Test results from article doi:10.1101/2022.01.25.477668.
These are yes or no findings as the source states them, for the method shown. Binding seen in cells or lysates may run through a third protein. Some results given as binding are weak or reduced against the parent protein; the word gives no strength. For some of these results: Where a sequence is shown, tags or fusion partners need not be part of it.

By UniProt entry, the sequences of proteins in these tests, tags left out.
UniProt Q61025: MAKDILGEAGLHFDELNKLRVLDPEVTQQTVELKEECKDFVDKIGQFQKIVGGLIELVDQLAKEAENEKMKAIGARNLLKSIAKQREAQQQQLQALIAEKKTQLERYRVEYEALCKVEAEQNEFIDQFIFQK

T1: Cep78-HA (mouse) (UniProt Q6IRU7)
T1 sequence: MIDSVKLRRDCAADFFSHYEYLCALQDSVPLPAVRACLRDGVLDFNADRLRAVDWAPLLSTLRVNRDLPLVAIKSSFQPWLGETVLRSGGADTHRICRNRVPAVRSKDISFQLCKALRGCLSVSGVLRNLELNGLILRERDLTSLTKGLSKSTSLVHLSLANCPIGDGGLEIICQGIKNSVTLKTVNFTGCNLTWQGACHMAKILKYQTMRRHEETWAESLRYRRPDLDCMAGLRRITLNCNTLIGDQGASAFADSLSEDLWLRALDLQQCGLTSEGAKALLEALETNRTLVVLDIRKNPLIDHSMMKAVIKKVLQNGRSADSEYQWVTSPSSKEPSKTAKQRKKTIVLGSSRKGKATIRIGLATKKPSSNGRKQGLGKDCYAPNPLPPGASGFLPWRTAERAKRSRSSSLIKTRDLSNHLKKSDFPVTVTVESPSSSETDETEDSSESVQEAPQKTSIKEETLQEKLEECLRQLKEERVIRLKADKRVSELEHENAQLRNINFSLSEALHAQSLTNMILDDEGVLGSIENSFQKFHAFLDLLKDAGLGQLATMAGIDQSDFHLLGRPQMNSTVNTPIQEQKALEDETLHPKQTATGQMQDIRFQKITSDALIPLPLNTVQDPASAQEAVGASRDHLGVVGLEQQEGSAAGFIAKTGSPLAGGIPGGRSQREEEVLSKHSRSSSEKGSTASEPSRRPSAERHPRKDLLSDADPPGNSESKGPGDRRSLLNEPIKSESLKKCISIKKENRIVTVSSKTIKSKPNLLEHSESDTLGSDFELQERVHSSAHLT

B1: Ttc21a-Flag (protein, UniProt Q8C0S4 1-1314)
chain: MSSDDSSLMASIIYYSQEKYFHHVLQAANVGLERYSSDPALQFFRAYGILGEDHIHDAISELEGIQSHPDTSLCAVIALLSAHKSCDTIDIEAVQELESSLKEIRRSASSTALYYASLFLWFMGHHDKAREYVDHMLKVSSGSKEGYVLKGWVDLTSSKPHVVKKSIKYLEQGTQDTKDVLGLMGKATYFMTQQNFSGALEVANQVTLACSNFLPALVLKMKLFLARQDWDQTIETGQRILEKDENNIDAWQILAVHELVKEGNTDRAADRVRNLIKALETGEPHNPNLHLKKILVISRLCGRHQVVHRLVSGFLERIFMATPSCALVATELGYLFILHQQVKEACLWYKEAMKLEENRLAALAGSIWCQILQGQLEEAAHQLEFLKEVQQSLGKSELLVFLQALVAAKKQRLEQEATALLKEAVEVHFSSMQGLALSPEYFEKLDPLFLVCIAKEYLHFCPKQPRSPGQLVSPLLKQVAMILSPVVKVAPAMMEPLYVTAQVKFLSGELENAQSTLQRCLELDPTFVDAHLLMSQIYLAQGNFAMCSHCLELGVSHNFQVRDHPLYHFIKARALNKTGDYAEAIKTLKMIIKVPTSKAEEGRKSQSPSVRPSERASILLELVEALRLNGELHEATKIMQDAINEFSGTPEEMRITVANVDLALSKGNVDLALNMLRGITPKQPCYTEAKEKMASIYLHTRKDVRLYIGCYVELCEHLPGPHSSLLLGDAFMNIQEPEKALEVYDEAYRKNPHDASLVSRIGQAYVKTHQYAKAINYYEAAQKISGQDFLCCELAELLLKLKKYHKAEKVLKQALERDSGVKDIPSMINEVKCLLLLAKVYKSHKKEEVMETLNLALDLQSRILKRVPLEQSEMIPFQNQLAASICIQIGEHHLAEKDYDSALKSYKDALAYSPTDSKVVLELAHLYLLLGQLDLCEQRCAPLLEMEQTHERAAVMLADLMFRRQNYETAINLYHQVLEKAPDNFLVLNKLVDLLRRSGKLEEAPAFFELAKKVSSRVPLEPGFNYCQGIYFWHIGQPNEALRFLNKARKDSTWGQLATCYMVQICLNPDNEIVGGEAFESLVGDSNSASRKESQQHGVRTAEKLLREFYPHSESGQTQLRLLQNLCLLATREKANVEVALGAFIEMAQAEKDSIPALLAMAQAYILLKQVPKARTQLKRLAKVPWTVDEAEDLEKSWLLLADIYCQGGKFDLALELLRRCLQYNKSCCRAYEYMGFIMEKEQSYKDAATNYELAWKYSHQANPAIGFKLAFNYLKDKKFVDAIEVCHSVLTEHPKYPKIREEILEKAQGSLRP
B2: Ttc21a (endogenous, mouse testis) (protein, UniProt Q8C0S4 1-1314)
chain: B1 chain

Tests used:
Assay in all cases: co-IP
[1] = molecular target: T1, Cep78-HA (mouse)
[2] = molecular target: Ift20-HA (mouse) (UniProt Q61025)
[3] = molecular target: Ift20 (endogenous, mouse testis) (mouse (endogenous in testis)) (UniProt Q61025)

Row | Molecule | binding [1] | binding [2] | binding [3]
1 | Ift20-Flag (from UniProt Q61025 1-132) | binds | – | –
2 | B1 | binds | binds | –
3 | B2 | – | – | binds
